Results reported in patent US20190240184A1, “PHARMACEUTICAL APPLICATIONS FOR (S)-N[…] SALTS THEREOF” (NATIONAL UNIVERSITY CORPORATION CHIBA UNIVERSITY, priority 2016, published 2019).

Columns and labels:
[1] = system: LPS-treated mice; assay: Locomotion test (LMT) in LPS-induced inflammatory model of depression; conditions: LMT 1 h after
[2] = system: social defeat stress mice; assay: Locomotion test (LMT) in social defeat stress model of depression; conditions: 10 mg/kg intraperitoneally, vs normal mice and stress mice administered saline
[3] = 10 mg/kg intraperitoneally 23 h after LPS, vs normal and saline groups

SMILES	amount of locomotion in LMT [1, 3]	amount of locomotion in LMT ([1]; 5, 10, or 20 mg/kg intraperitoneally 23 h after LPS, vs normal mice and LPS-treated mice administered saline)	amount of locomotion in LMT [2]
NC1(c2ccccc2Cl)CCCCC1=O (centres unmarked) [norketamine]	no difference in amount of locomotion	no difference in amount of locomotion	–
N[C@@]1(c2ccccc2Cl)CCCCC1=O [(R)-norketamine]	–	–	no difference in amount of locomotion
CNC1(c2ccccc2Cl)CCCCC1=O (racemic) [ketamine]	no difference in amount of locomotion	–	–
N[C@]1(c2ccccc2Cl)CCCCC1=O [(S)-norketamine]	–	–	no difference in amount of locomotion
